# From patent US11299447B2, “Method for isolating a carboxylic acid from an aqueous solution” (PURAC BIOCHEM BV, priority 2011, dated 2022)
# What was measured:
# Type in all cases: physicochemical
# [1] = Comparison of different solvents in lactic acid extraction; details: per extraction solvent; feed 29 wt % lactic acid, 15 wt. % MgCl2; 20° C.
# [2] = Forward/back extraction of different acids with methyl-isobutylketone; details: MIBK, 20° C.
# [3] = Extraction of different types of polycarboxylic acids; details: for concentration ratio: acid concentration in product / acid concentration in feed; for [acid] aqueous fraction after back extraction: feed per Table 12.1, 15 wt. % MgCl2
# From the text: These tables also give the concentration ratio, which is the ratio between the acid concentration in the product and the acid concentration in the feed.
# [4] = Removal of solvent from acid product (forward/back extraction, then steam stripping); details: for Solvent residue after stripping: after evaporating 50% (weight basis) in atmospheric packed stripping column; for Solvent residue before stripping: in aqueous product after back extraction; for 2-hydroxy butyric acid in aqueous product: per extraction solvent, feed 34 wt % acid, 15 wt % MgCl2, forward and back extraction 20° C., ratio 1:10
# [5] = Pilot extraction of lactic acid in Pulsed Disc and Donut Column; details: PDDC pilot column, MIBK, counter-current; forward 60° C., back 20° C.; feed 29 wt %
structure (smiles),measurement,setting,value
CCCCCC(C)=O [2-heptanone],[lactic acid] product,[1],34 wt. %
CCCCC(C)=O [2-hexanone],[lactic acid] product,[1],35 wt. %
CCC(O)C(=O)O (stereo not drawn) [2-hydroxy butyric acid],wt. % acid in product,"[2]; feed 13 wt. % acid, 7 wt. % MgCl2",15 wt. %
same,wt. % acid in product,"[2]; feed 34 wt. % acid, 15 wt. % MgCl2",21 wt. %
CCCCCCC(C)=O [2-octanone],[lactic acid] product,[1],30 wt. %
CCCC(C)=O [2-pentanone],[lactic acid] product,[1],30 wt. %
O=C(O)CCO [3-hydroxy propionic acid],wt. % acid in product,"[2]; feed 8 wt. % acid, 5 wt. % MgCl2",4 wt. %
same,wt. % acid in product,"[2]; feed 27 wt. % acid, 15 wt. % MgCl2",21 wt. %
"O=C(O)/C=C/C(=O)O [Fumaric acid, fumaric acid]",concentration ratio,[3],1.8
same,[acid] aqueous fraction after back extraction,[3],0.21 wt. %
"C=C(CC(=O)O)C(=O)O [Itaconic acid, itaconic acid]",concentration ratio,[3],1.9
same,[acid] aqueous fraction after back extraction,[3],2.8 wt. %
"CC(=O)CC(C)C [MIBK, methyl-isobutylketone]",[lactic acid] product,[1],35 wt. %
same,Solvent residue after stripping,[4],0.6 mg/kg
same,Solvent residue before stripping,[4],24000 mg/kg
same,2-hydroxy butyric acid in aqueous product,[4],22 wt. %
"CCCCCCCCN(CCCCCCCC)CCCCCCCC [Trioctylamine, reference compound]",Solvent residue after stripping,[4],20 mg/kg
same,Solvent residue before stripping,[4],9 mg/kg
same,2-hydroxy butyric acid in aqueous product,[4],15 wt. %
CC(=O)c1ccccc1 [acetophenone],[lactic acid] product,[1],34 wt. %
O=C1CCCCC1 [cyclo-hexanone],[lactic acid] product,[1],32 wt. %
O=C(O)CO [glycolic acid],wt. % acid in product,"[2]; feed 15 wt. % acid, 9 wt. % MgCl2",7.5 wt. %
same,wt. % acid in product,"[2]; feed 23 wt. % acid, 15 wt. % MgCl2",15 wt. %
CC(O)C(=O)O (stereo not drawn) [lactic acid],concentration of lactic acid in aqueous phase after back extraction,[5],34.5 wt %
